Measured values reported in patent US12312356B2, “Anthelmintic heterocyclic compounds” (Boehringer Ingelheim Vetmedica GmbH, priority 2020, dated 2025).
Some of these results come from one statement about several compounds together.

Columns and labels:
[1] = test system: L4 stage Dirofilaria immitis worms; test: Screening method to test activity against L4 stage larvae of Dirofilaria immitis (motility, dose response); assay type: cell-based; settings: D. immitis L4 larvae, three days at 37° C. and 5% CO2, motility relative to DMSO control wells
[2] = test system: microfilariae of Dirofilaria immitis; test: Screening method to test activity against microfilaria of Dirofilaria immitis (motility, dose response); assay type: cell-based; settings: D. immitis microfilariae, three days at 37° C. and 5% CO2, motility compared to DMSO control wells

SMILES | EC50 [1] [nM] | EC50 [2] [nM]
Cc1nc2c(C(C)C)c(C(=O)N[C@H]3CCOc4ccc(F)cc43)cnn2c1-c1cccc(Cl)c1Cl [Compound 293] | < 1 | 
C=C(C)c1c(C(=O)N[C@H]2CCOc3ccc(F)cc32)cnn2c(-c3cc(F)cc(F)c3)c(C)nc12 [Compound 307] |  | < 1
C=C(C)c1c(C(=O)N[C@H]2CCOc3ccc(F)cc32)cnn2c(-c3cc(Cl)cc(Cl)c3)c(C)nc12 [Compound 308] | < 1 | 
Cc1nc2c(C(C)C)c(C(=O)N[C@H]3CCOc4ccccc43)cnn2c1C1CCC(F)(F)CC1 [Compound 371] | < 1 | 
Cc1nc2c(C(C)(C)C)c(C(=O)N[C@H]3CCOc4ccccc43)cnn2c1-c1c(F)cc(F)cc1F [Compound 524] |  | < 1
Cc1nc2c(C(C)(C)C)c(C(=O)N[C@H]3CCOc4ccccc43)cnn2c1-c1cc(F)cc(Cl)c1Cl [Compound 526] |  | < 1
Cc1nc2c(N3CCOCC3)c(C(=O)N[C@H]3CCOc4ccccc43)cnn2c1-c1c(Cl)cc(F)cc1Cl [Compound A421] |  | < 1
